PubChem BioAssay AID1259254, NCATS – 2017
In all, the deposit lists about 59,000 reagents; this is a part drawn at random. About 1,550 of them (2.6%) were called active. 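G2 share is only a proxy for re-replication; each gene was hit by three separate siRNAs, and active genes were retested.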 Raw values vary from plate to plate and are shown uncorrected. The numbers tell different reagents against one gene apart. Reagent sequences are not shown. The record does not give: the amount of reagent.

Aim: 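Genome-wide screen for genes that prevent DNA re-replication in cancer cells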 (primary screen)
Cells: human HCT116 colorectal cancer cells
Reagent: single siRNA against human genes
Time to read-out: 3 days
Measured: 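Nuclei stained with Hoechst and imaged; cell-cycle phase assigned by DNA content; G2 share scaled per plate, non-targeting siRNA 0%, GMNN siRNA 100%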
Direction: G2 robust z-score and G2 cells, % of GMNN control: higher = more G2 cells, more excess DNA replication; raw share of cells in G2: higher = larger share of cells with G2 DNA content
Call rule: 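Active siRNAs have a G2 robust z of 5 or more median absolute deviations over the median, which in these data means about 38% or higher of GMNN control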

gene | siRNA no. | G2 robust z-score | G2 cells, % of GMNN control | raw share of cells in G2 (%) | Call
GOLGA8A (GeneID 23015) | 1 | -0.563 | -0.991 | 3.73 | inactive
GOLGA8A (GeneID 23015) | 2 | -0.98 | -3.93 | 1.7 | inactive
GOLGA8A (GeneID 23015) | 3 | 1.48 | 13.4 | 10.2 | inactive
MRPS18A (GeneID 55168) | 1 | 0.956 | 9.7 | 8.25 | inactive
MRPS18A (GeneID 55168) | 2 | 6.27 | 47.1 | 23.7 | active
MRPS18A (GeneID 55168) | 3 | 3.55 | 27.9 | 12.1 | inactive
RNASE9 (GeneID 390443) | 1 | -0.239 | 1.29 | 6.46 | inactive
RNASE9 (GeneID 390443) | 2 | 5.47 | 41.4 | 19.4 | active
RNASE9 (GeneID 390443) | 3 | 2.84 | 23 | 13.9 | inactive
RABL3 (GeneID 285282) | 1 | 1.21 | 11.5 | 9.45 | inactive
RABL3 (GeneID 285282) | 2 | -0.316 | 0.747 | 4.56 | inactive
RABL3 (GeneID 285282) | 3 | 0.842 | 8.89 | 9.75 | inactive
ACACA (GeneID 31) | 1 | 0.109 | 3.74 | 5.99 | inactive
ACACA (GeneID 31) | 2 | -1.19 | -5.37 | 3.16 | inactive
ACACA (GeneID 31) | 3 | -0.68 | -1.82 | 3.31 | inactive
SPDYE10 (GeneID 643862) | 1 | 0.593 | 7.14 | 5.84 | inactive
SPDYE10 (GeneID 643862) | 2 | -0.093 | 2.31 | 3.82 | inactive
SPDYE10 (GeneID 643862) | 3 | 1.15 | 11 | 7.84 | inactive
TRA2B (GeneID 6434) | 1 | 1.01 | 10.1 | 9.08 | inactive
TRA2B (GeneID 6434) | 2 | 0.256 | 4.77 | 6.18 | inactive
TRA2B (GeneID 6434) | 3 | -0.356 | 0.459 | 4.11 | inactive
PPP1R2P4 (GeneID 728970) | 1 | 0.094 | 3.63 | 5.32 | inactive
PPP1R2P4 (GeneID 728970) | 2 | -0.285 | 0.962 | 3.63 | inactive
PPP1R2P4 (GeneID 728970) | 3 | 0.405 | 5.82 | 5.37 | inactive
NCEH1 (GeneID 57552) | 1 | 0.608 | 7.25 | 7.2 | inactive
NCEH1 (GeneID 57552) | 2 | 0.1 | 3.67 | 6.21 | inactive
NCEH1 (GeneID 57552) | 3 | -0.0432 | 2.66 | 3.87 | inactive
LRRC32 (GeneID 2615) | 1 | 9.8 | 71.9 | 31.4 | active
LRRC32 (GeneID 2615) | 2 | -0.491 | -0.49 | 5.08 | inactive
LRRC32 (GeneID 2615) | 3 | 1.33 | 12.4 | 8.06 | inactive
ACSL1 (GeneID 2180) | 1 | 3.02 | 24.2 | 14 | inactive
ACSL1 (GeneID 2180) | 2 | 1.53 | 13.8 | 10.5 | inactive
ACSL1 (GeneID 2180) | 3 | -0.712 | -2.04 | 2.93 | inactive
RFPL1 (GeneID 5988) | 1 | -1.14 | -5.06 | 2.75 | inactive
RFPL1 (GeneID 5988) | 2 | -0.209 | 1.49 | 4.64 | inactive
RFPL1 (GeneID 5988) | 3 | 1.47 | 13.3 | 9.56 | inactive
MARCHF6 (GeneID 10299) | 1 | -1.21 | -5.53 | 3.29 | inactive
MARCHF6 (GeneID 10299) | 2 | -0.454 | -0.224 | 3.77 | inactive
MARCHF6 (GeneID 10299) | 3 | -0.434 | -0.0881 | 6.44 | inactive
DOK4 (GeneID 55715) | 1 | -1.23 | -5.67 | 2.35 | inactive
DOK4 (GeneID 55715) | 2 | -0.429 | -0.0494 | 4.12 | inactive
DOK4 (GeneID 55715) | 3 | -0.385 | 0.257 | 3.22 | inactive
MRPL4 (GeneID 51073) | 1 | 1.68 | 14.8 | 9.51 | inactive
MRPL4 (GeneID 51073) | 2 | 7.68 | 57 | 26.1 | active
MRPL4 (GeneID 51073) | 3 | -1.48 | -7.47 | 0.898 | inactive
MRPL11 (GeneID 65003) | 1 | -1.14 | -5.09 | 2.37 | inactive
MRPL11 (GeneID 65003) | 2 | 0.639 | 7.46 | 7.95 | inactive
MRPL11 (GeneID 65003) | 3 | 6 | 45.2 | 14.6 | active
EDNRB (GeneID 1910) | 1 | -0.145 | 1.95 | 6.54 | inactive
EDNRB (GeneID 1910) | 2 | 1.16 | 11.2 | 8.42 | inactive
EDNRB (GeneID 1910) | 3 | -1.12 | -4.93 | 1.76 | inactive
SEZ6L2 (GeneID 26470) | 1 | 0.792 | 8.54 | 10 | inactive
SEZ6L2 (GeneID 26470) | 2 | 0.141 | 3.96 | 5.5 | inactive
SEZ6L2 (GeneID 26470) | 3 | -0.421 | 0.00272 | 3.99 | inactive
RFC3 (GeneID 5983) | 1 | 1.07 | 10.5 | 8.6 | inactive
RFC3 (GeneID 5983) | 2 | -0.359 | 0.441 | 4.85 | inactive
RFC3 (GeneID 5983) | 3 | 6.58 | 49.3 | 20.5 | active
OXSR1 (GeneID 9943) | 1 | 2.64 | 21.5 | 12.3 | inactive
OXSR1 (GeneID 9943) | 2 | -0.253 | 1.19 | 5.62 | inactive
OXSR1 (GeneID 9943) | 3 | 0.261 | 4.81 | 5.22 | inactive
HPX (GeneID 3263) | 1 | -1.39 | -6.83 | 1.7 | inactive
HPX (GeneID 3263) | 2 | 4.31 | 33.3 | 18.4 | inactive
HPX (GeneID 3263) | 3 | 0.297 | 5.06 | 6.88 | inactive
PLEKHF2 (GeneID 79666) | 1 | 0.291 | 5.01 | 4.56 | inactive
PLEKHF2 (GeneID 79666) | 2 | -0.947 | -3.7 | 4.24 | inactive
PLEKHF2 (GeneID 79666) | 3 | -0.351 | 0.498 | 3.79 | inactive
SFXN1 (GeneID 94081) | 1 | -0.431 | -0.0635 | 5.64 | inactive
SFXN1 (GeneID 94081) | 2 | 0.265 | 4.83 | 7.04 | inactive
SFXN1 (GeneID 94081) | 3 | 0.678 | 7.74 | 7.4 | inactive

6 of these entries, reformatted:
{"gene": "OXSR1 (GeneID 9943)", "siRNA no.": 2, "G2 robust z-score": -0.253, "G2 cells, % of GMNN control": 1.19, "raw share of cells in G2 (%)": 5.62, "Call": "inactive"}
{"gene": "OXSR1 (GeneID 9943)", "siRNA no.": 3, "G2 robust z-score": 0.261, "G2 cells, % of GMNN control": 4.81, "raw share of cells in G2 (%)": 5.22, "Call": "inactive"}
{"gene": "HPX (GeneID 3263)", "siRNA no.": 1, "G2 robust z-score": -1.39, "G2 cells, % of GMNN control": -6.83, "raw share of cells in G2 (%)": 1.7, "Call": "inactive"}
{"gene": "HPX (GeneID 3263)", "siRNA no.": 2, "G2 robust z-score": 4.31, "G2 cells, % of GMNN control": 33.3, "raw share of cells in G2 (%)": 18.4, "Call": "inactive"}
{"gene": "HPX (GeneID 3263)", "siRNA no.": 3, "G2 robust z-score": 0.297, "G2 cells, % of GMNN control": 5.06, "raw share of cells in G2 (%)": 6.88, "Call": "inactive"}
{"gene": "PLEKHF2 (GeneID 79666)", "siRNA no.": 1, "G2 robust z-score": 0.291, "G2 cells, % of GMNN control": 5.01, "raw share of cells in G2 (%)": 4.56, "Call": "inactive"}
